From paper PMC11026275
Results are given in words; binding and its absence hold for the method and conditions named. Binding seen in cells or lysates may run through a third protein. Some results given as binding are weak or reduced against the parent protein; the word gives no strength. For some assays here: Sequences can lack the tags named with a protein.

Chains of the proteins cited; added tags and fusions are not shown.
UniProt Q94BT6: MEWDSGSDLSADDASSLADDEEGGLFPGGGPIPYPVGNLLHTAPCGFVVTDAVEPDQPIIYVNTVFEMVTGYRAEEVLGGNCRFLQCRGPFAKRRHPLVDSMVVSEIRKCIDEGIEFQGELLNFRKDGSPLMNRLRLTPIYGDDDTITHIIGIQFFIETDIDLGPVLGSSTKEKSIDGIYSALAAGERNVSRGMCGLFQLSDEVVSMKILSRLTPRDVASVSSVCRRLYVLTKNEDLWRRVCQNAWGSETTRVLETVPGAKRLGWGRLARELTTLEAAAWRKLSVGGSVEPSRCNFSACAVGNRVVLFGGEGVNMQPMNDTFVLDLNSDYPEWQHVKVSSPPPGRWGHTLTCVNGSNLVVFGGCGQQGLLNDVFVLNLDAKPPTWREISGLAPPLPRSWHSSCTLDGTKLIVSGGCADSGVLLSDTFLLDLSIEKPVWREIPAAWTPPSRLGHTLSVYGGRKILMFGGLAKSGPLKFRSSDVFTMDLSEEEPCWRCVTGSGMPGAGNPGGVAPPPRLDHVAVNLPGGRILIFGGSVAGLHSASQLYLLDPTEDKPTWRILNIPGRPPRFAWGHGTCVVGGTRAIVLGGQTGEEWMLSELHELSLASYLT
UniProt Q39057: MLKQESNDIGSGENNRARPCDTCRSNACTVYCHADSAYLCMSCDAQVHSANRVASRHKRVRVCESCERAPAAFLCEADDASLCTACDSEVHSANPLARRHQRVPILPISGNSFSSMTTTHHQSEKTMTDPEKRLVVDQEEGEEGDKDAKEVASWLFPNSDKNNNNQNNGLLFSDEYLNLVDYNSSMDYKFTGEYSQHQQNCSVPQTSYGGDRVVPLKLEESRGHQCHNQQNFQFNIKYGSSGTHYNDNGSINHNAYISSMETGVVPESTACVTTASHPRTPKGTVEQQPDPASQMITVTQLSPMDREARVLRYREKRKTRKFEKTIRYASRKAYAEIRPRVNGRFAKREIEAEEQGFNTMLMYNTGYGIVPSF

Key:
[1] = target: ZEITLUPE (ZTL), TAP-tagged, transiently overexpressed in Nicotiana benthamiana (Arabidopsis thaliana) (UniProt Q94BT6); assay: co-IP; proteins transiently co-expressed in Nicotiana benthamiana leaves (3 days under LDs); TAP-tagged protein immunoprecipitated with anti-Protein A antibody, HA-tagged protein detected with anti-HA
[2] = target: FKF1 (FLAVIN-BINDING, KELCH REPEAT, F-BOX 1), wild type, transiently overexpressed in Nicotiana benthamiana (Arabidopsis thaliana) (UniProt Q9C9W9); assay: as above
[3] = target: CONSTANS (CO), TAP-tagged, transiently overexpressed in Nicotiana benthamiana (Arabidopsis thaliana) (UniProt Q39057); assay: as above
[4] = target: T1, GIGANTEA (GI), TAP-tagged, expressed from the GI promoter in transgenic Arabidopsis (Arabidopsis thaliana) (UniProt Q9SQI2); assay: co-IP; 10-day-old transgenic Arabidopsis seedlings under LDs, harvested at ZT12; GI-TAP immunoprecipitated with anti-Protein A antibody, HA-FKF1 detected with anti-HA; also under white, red or blue light (Supplementary Fig. S3)
T1 sequence: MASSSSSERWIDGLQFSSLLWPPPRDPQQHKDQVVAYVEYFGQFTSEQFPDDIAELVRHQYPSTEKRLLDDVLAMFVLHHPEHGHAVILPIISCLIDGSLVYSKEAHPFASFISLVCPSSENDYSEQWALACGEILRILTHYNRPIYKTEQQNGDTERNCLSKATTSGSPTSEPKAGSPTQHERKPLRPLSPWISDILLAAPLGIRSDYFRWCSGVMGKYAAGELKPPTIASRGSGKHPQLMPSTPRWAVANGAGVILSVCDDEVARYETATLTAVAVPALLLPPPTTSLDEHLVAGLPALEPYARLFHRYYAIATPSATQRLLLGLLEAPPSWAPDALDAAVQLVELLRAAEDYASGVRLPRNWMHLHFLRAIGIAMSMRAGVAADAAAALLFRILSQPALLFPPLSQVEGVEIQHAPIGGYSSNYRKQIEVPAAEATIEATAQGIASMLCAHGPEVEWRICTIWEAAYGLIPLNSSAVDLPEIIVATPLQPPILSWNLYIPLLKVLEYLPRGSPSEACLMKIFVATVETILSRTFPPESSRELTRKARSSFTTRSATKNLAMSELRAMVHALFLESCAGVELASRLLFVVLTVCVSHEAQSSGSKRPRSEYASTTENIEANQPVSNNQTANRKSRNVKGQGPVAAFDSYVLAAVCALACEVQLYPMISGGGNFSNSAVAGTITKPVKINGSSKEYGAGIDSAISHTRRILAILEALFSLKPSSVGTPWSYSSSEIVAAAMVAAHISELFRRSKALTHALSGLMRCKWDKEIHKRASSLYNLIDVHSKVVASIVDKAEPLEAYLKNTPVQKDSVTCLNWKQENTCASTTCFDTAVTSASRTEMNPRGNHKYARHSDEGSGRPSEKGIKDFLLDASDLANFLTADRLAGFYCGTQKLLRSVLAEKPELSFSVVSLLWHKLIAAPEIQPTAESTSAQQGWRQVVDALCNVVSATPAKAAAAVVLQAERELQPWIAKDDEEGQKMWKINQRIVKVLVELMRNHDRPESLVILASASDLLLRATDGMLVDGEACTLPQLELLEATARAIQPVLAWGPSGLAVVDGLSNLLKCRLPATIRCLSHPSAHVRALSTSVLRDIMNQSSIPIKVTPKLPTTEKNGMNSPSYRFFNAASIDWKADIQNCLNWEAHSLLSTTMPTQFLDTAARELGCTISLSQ

[5] = target: HA-FKF1, wild type, expressed from the FKF1 promoter in transgenic Arabidopsis (Arabidopsis thaliana), Q9C9W9; assay: co-IP; 10-day-old transgenic Arabidopsis seedlings under LDs, sampled at ZT12; HA-tagged FKF1 immunoprecipitated with anti-HA antibody, endogenous COP1 detected with anti-COP1 antibody; settings: remark: other sources report otherwise

B1: FKF1 I160R variant, HA-tagged, transiently overexpressed in Nicotiana benthamiana (protein, UniProt Q9C9W9 1-619)
chain: MAREHAIGEATGKRKKRGRVEEAEEYCNDGIEEQVEDEKLPLEVGMFYYPMTPPSFIVSDALEPDFPLIYVNRVFEVFTGYRADEVLGRNCRFLQYRDPRAQRRHPLVDPVVVSEIRRCLEEGIEFQGELLNFRKDGTPLVNRLRLAPIRDDDGTITHVRGIQVFSETTIDLDRVSYPVFKHKQQLDQTSECLFPSGSPRFKEHHEDFCGILQLSDEVLAHNILSRLTPRDVASIGSACRRLRQLTKNESVRKMVCQNAWGKEITGTLEIMTKKLRWGRLARELTTLEAVCWRKFTVGGIVQPSRCNFSACAVGNRLVLFGGEGVNMQPLDDTFVLNLDAECPEWQRVRVTSSPPGRWGHTLSCLNGSWLVVFGGCGRQGLLNDVFVLDLDAKHPTWKEVAGGTPPLPRSWHSSCTIEGSKLVVSGGCTDAGVLLSDTFLLDLTTDKPTWKEIPTSWAPPSRLGHSLSVFGRTKILMFGGLANSGHLKLRSGEAYTIDLEDEEPRWRELECSAFPGVVVPPPRLDHVAVSMPCGRVIIFGGSIAGLHSPSQLFLIDPAEEKPSWRILNVPGKPPKLAWGHSTCVVGGTRVLVLGGHTGEEWILNELHELCLASRQDSDL
- binding [1]: binds
- binding [2]: binds
- binding [3]: binds

B2: HA-FKF1 I160R, full-length FKF1 I160R expressed from the FKF1 promoter in transgenic Arabidopsis (protein, UniProt Q9C9W9 1-619)
chain: MAREHAIGEATGKRKKRGRVEEAEEYCNDGIEEQVEDEKLPLEVGMFYYPMTPPSFIVSDALEPDFPLIYVNRVFEVFTGYRADEVLGRNCRFLQYRDPRAQRRHPLVDPVVVSEIRRCLEEGIEFQGELLNFRKDGTPLVNRLRLAPIRDDDGTITHVRGIQVFSETTIDLDRVSYPVFKHKQQLDQTSECLFPSGSPRFKEHHEDFCGILQLSDEVLAHNILSRLTPRDVASIGSACRRLRQLTKNESVRKMVCQNAWGKEITGTLEIMTKKLRWGRLARELTTLEAVCWRKFTVGGIVQPSRCNFSACAVGNRLVLFGGEGVNMQPLDDTFVLNLDAECPEWQRVRVTSSPPGRWGHTLSCLNGSWLVVFGGCGRQGLLNDVFVLDLDAKHPTWKEVAGGTPPLPRSWHSSCTIEGSKLVVSGGCTDAGVLLSDTFLLDLTTDKPTWKEIPTSWAPPSRLGHSLSVFGRTKILMFGGLANSGHLKLRSGEAYTIDLEDEEPRWRELECSAFPGVVVPPPRLDHVAVSMPCGRVIIFGGSIAGLHSPSQLFLIDPAEEKPSWRILNVPGKPPKLAWGHSTCVVGGTRVLVLGGHTGEEWILNELHELCLASRQDSDL
- binding [4]: binds

B3: CONSTITUTIVE PHOTOMORPHOGENIC 1 (COP1), endogenous, P43254 1-675 (protein)
chain: MEEISTDPVVPAVKPDPRTSSVGEGANRHENDDGGSGGSEIGAPDLDKDLLCPICMQIIKDAFLTACGHSFCYMCIITHLRNKSDCPCCSQHLTNNQLYPNFLLDKLLKKTSARHVSKTASPLDQFREALQRGCDVSIKEVDNLLTLLAERKRKMEQEEAERNMQILLDFLHCLRKQKVDELNEVQTDLQYIKEDINAVERHRIDLYRARDRYSVKLRMLGDDPSTRNAWPHEKNQIGFNSNSLSIRGGNFVGNYQNKKVEGKAQGSSHGLPKKDALSGSDSQSLNQSTVSMARKKRIHAQFNDLQECYLQKRRQLADQPNSKQENDKSVVRREGYSNGLADFQSVLTTFTRYSRLRVIAEIRHGDIFHSANIVSSIEFDRDDELFATAGVSRCIKVFDFSSVVNEPADMQCPIVEMSTRSKLSCLSWNKHEKNHIASSDYEGIVTVWDVTTRQSLMEYEEHEKRAWSVDFSRTEPSMLVSGSDDCKVKVWCTRQEASVINIDMKANICCVKYNPGSSNYIAVGSADHHIHYYDLRNISQPLHVFSGHKKAVSYVKFLSNNELASASTDSTLRLWDVKDNLPVRTFRGHTNEKNFVGLTVNSEYLACGSETNEVYVYHKEITRPVTSHRFGSPDMDDAEEEAGSYFISAVCWKSDSPTMLTANSQGTIKVLVLAA
- binding [5]: binds
